Data as given in the supplement of paper PMC12889115.
The other results are listed elsewhere or left out. Values are raw readings; no control value is given beside them.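 First-pass screen: polymyxin B was added at a level that permeabilizes the Salmonella outer membrane while sparing the inner membrane. DMSO wells, with and without polymyxin B, defined maximum growth. Because plates differed from one another, each plate's data were ranked separately and the compounds with the lowest OD600 were carried forward as hits.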

Test system: Salmonella enterica serovar Typhimurium SL1344
Assay: bacterial growth OD600 after 18 h with compound and polymyxin B; higher = more bacterial growth (less inhibition)
Conditions: 50 µM, Mueller-Hinton broth

SMILES	bacterial growth OD600 (polymyxin B 0.75 µg/mL)	bacterial growth OD600 (polymyxin B 1 µg/mL)
Cc1ccc(OCC(=O)Nc2cccc(-c3nc(CNC(=O)Cc4c(C)noc4C)c(C)o3)c2)cc1	0.777	–
O=C(CCCn1cncn1)NC1CCCc2nc(-c3ccccc3)ncc21 (stereo not given)	–	0.933
CC(C)CNC(=O)C1CCCN(C2CCN(c3nc4ccccc4o3)CC2)C1 (stereo not given)	0.883	–
COc1cc(C)c(CN2CCC3(CC2)c2ccccc2[C@@H](NC(=O)c2ccco2)[C@@H]3OC)cc1C	0.006	–
CC(C)c1nc(CNC(=O)c2ccc(N3CCCCCC3)nc2)no1	–	0.876
O=C1CN(C(=O)CC2c3ccccc3CCc3ccccc32)CCN1	0.931	–
CCOC(=O)C1(Cc2cccc(F)c2)CCN(Cc2cnn(CC)c2C)CC1	–	0.929
CN(CC(O)c1ccccc1)C(=O)c1cc(Cn2ccc3ccccc32)[nH]n1 (stereo not given)	–	1.02
C=CCC(O)(CC=C)CNC1CCN(c2cccc(NC(=O)CC3CCCC3)c2)CC1	0.851	–
COc1cccc(CC2(CO)CCCN(Cc3ccc(SC)cc3)C2)c1 (stereo not given)	–	0.875
O=C1CCC(CCNCc2cc3c(cc2Cl)OCO3)N1CC(c1ccccn1)N1CCOCC1 (stereo not given)	0.856	–
Cc1ccccc1-c1noc(-c2ccc(NCC3COCCO3)nc2)n1 (stereo not given)	0.495	–
COc1ccccc1-c1cn2c(C(=O)N3CCCCC3c3ccccn3)csc2n1 (stereo not given)	0.003	–
CN(CC1CCN(CCc2ccc(F)cc2)CC1)C(=O)/C=C/c1cnn(C)c1	–	1.04
COc1ccc(CN2CCN(Cc3cc(F)cc(F)c3)CC2CCO)c(C)c1C (stereo not given)	–	0.898
Cc1ccc2nc(CNC(=O)Cn3nnnc3CN3CCC(C)CC3)cn2c1	0.872	–
Cc1cc(CNc2ccc(-c3nc(C4CC4)no3)cn2)no1	–	0.983
O=C(Nc1cccc(-n2cccn2)c1)C1CCCN(Cc2cccc(F)c2F)C1 (stereo not given)	–	0.734
C=CCCC(=O)NCc1cccnc1Oc1c(C)cccc1C	–	0.894
O=C(CCC1CCN(C(=O)NC2CCS(=O)(=O)C2)CC1)NCc1ccc(F)cc1 (stereo not given)	–	1.09

Four entries from above, as comma-separated lines.
SMILES,bacterial growth OD600 (polymyxin B 0.75 µg/mL),bacterial growth OD600 (polymyxin B 1 µg/mL)
Cc1ccc(OCC(=O)Nc2cccc(-c3nc(CNC(=O)Cc4c(C)noc4C)c(C)o3)c2)cc1,0.777,–
O=C(CCCn1cncn1)NC1CCCc2nc(-c3ccccc3)ncc21 (stereo not given),–,0.933
CC(C)CNC(=O)C1CCCN(C2CCN(c3nc4ccccc4o3)CC2)C1 (stereo not given),0.883,–
COc1cc(C)c(CN2CCC3(CC2)c2ccccc2[C@@H](NC(=O)c2ccco2)[C@@H]3OC)cc1C,0.006,–
